These are yes or no findings as the source states them, for the method shown. Binding seen in cells or lysates may run through a third protein. Some entries that bind do so weakly or less than the wild type. For some of these results: Where a sequence is shown, tags or fusion partners need not be part of it.
Columns and labels:
Assay in all cases: co-IP; HEK293T co-transfected with FLAG tagged proteins and DDX3X-GFP with or without murine circRIG-I; lysis buffer 10% glycerol, 0.5% NP-40, 150 mM NaCl, 0.1 mM EDTA; immunoprecipitated with FLAG antibody and protein A/G agarose beads, blotted with anti-GFP
[1] = target: FLAG tagged MAVS (UniProt Q7Z434)
[2] = target: T1, FLAG tagged TBK1 (UniProt Q9UHD2)
T1 sequence: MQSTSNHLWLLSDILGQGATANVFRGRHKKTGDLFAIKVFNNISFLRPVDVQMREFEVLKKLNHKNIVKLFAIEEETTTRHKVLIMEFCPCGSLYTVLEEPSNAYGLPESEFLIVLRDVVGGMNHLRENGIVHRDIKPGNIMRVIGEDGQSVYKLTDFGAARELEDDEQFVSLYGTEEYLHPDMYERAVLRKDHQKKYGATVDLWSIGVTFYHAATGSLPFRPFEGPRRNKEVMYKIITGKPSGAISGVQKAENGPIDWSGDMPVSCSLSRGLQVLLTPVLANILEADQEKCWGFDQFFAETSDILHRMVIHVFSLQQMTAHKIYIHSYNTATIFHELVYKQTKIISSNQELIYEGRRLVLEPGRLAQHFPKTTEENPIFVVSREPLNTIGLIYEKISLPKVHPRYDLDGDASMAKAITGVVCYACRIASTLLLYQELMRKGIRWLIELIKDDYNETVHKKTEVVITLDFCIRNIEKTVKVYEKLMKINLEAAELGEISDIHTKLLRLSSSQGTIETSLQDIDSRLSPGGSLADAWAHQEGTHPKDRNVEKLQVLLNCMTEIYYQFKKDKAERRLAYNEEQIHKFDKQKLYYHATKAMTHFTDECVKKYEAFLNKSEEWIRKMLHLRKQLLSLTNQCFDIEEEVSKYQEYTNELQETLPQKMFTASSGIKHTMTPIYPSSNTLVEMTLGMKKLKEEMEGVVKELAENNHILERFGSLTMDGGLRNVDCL

Sequences of proteins named here, by UniProt entry; tags and fusion partners are left off.
UniProt Q7Z434: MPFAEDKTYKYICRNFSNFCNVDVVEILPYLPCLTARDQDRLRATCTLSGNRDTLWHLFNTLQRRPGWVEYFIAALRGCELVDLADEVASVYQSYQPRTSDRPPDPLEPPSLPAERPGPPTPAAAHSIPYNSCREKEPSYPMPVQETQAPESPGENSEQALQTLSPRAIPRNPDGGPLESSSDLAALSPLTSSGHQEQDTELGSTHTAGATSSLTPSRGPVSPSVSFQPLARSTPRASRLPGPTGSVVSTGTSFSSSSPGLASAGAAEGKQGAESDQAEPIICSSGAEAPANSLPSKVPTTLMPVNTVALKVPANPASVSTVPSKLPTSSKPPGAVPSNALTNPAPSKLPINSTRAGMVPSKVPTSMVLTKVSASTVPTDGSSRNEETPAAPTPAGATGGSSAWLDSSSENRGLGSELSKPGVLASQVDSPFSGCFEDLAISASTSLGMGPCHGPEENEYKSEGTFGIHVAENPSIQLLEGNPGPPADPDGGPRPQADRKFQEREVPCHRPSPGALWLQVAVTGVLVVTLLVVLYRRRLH
UniProt O00463: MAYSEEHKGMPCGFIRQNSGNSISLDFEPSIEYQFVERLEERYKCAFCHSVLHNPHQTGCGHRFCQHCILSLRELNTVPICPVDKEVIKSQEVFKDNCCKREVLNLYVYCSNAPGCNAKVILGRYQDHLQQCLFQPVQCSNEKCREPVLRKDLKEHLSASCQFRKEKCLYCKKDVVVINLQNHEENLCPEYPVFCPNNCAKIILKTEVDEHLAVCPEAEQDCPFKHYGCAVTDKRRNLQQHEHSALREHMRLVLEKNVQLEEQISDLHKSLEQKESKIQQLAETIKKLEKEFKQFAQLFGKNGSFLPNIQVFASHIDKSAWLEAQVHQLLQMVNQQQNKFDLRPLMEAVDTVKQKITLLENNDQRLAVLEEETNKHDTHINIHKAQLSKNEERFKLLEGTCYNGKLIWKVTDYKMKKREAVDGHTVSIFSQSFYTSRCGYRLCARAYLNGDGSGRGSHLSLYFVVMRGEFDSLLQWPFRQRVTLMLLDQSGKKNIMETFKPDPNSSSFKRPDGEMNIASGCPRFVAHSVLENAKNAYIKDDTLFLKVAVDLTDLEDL
UniProt O00571: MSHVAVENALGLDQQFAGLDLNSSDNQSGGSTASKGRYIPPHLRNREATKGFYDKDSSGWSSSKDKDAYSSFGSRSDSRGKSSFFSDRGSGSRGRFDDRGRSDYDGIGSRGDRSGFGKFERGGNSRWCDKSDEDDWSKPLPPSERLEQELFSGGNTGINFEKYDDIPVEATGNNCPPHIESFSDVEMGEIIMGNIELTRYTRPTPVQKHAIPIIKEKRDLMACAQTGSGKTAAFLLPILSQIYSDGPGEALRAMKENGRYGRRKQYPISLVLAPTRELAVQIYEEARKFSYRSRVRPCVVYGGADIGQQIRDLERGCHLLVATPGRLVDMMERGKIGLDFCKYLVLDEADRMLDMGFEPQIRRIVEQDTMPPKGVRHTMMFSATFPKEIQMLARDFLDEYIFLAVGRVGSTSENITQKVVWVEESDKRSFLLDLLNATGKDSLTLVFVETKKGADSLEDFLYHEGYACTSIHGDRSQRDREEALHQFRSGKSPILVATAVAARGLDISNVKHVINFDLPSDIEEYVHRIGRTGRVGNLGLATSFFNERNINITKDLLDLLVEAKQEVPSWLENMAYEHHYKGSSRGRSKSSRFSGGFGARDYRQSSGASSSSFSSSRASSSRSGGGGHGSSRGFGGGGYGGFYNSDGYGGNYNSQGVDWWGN

[3] = target: T2, FLAG tagged TRAF4 (UniProt Q9BUZ4)
T2 sequence: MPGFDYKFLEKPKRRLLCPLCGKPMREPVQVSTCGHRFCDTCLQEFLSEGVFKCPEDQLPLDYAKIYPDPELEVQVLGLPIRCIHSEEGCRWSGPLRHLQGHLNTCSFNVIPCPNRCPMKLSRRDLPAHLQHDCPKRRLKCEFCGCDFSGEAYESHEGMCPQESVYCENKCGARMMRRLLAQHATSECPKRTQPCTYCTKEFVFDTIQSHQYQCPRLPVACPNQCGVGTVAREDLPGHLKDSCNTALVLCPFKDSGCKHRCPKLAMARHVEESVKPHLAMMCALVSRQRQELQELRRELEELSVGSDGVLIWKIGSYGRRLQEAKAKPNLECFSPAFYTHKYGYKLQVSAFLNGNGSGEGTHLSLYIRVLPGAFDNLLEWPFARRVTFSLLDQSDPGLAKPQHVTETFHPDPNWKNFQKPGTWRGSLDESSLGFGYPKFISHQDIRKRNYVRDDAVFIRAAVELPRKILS

[4] = target: FLAG tagged TRAF5 (UniProt O00463)

Measured: binding

DDX3X-GFP (from UniProt O00571 1-662)
binds: all assays above

Reference: article PMC9675819
